This note sets out measurements from article PMC10399982.

This assay has as its target T1, G-protein-coupled AprA receptor GrlH (Dictyostelium discoideum (endogenous in Ax2-derived cells)) (UniProt Q54SH8).
T1 sequence: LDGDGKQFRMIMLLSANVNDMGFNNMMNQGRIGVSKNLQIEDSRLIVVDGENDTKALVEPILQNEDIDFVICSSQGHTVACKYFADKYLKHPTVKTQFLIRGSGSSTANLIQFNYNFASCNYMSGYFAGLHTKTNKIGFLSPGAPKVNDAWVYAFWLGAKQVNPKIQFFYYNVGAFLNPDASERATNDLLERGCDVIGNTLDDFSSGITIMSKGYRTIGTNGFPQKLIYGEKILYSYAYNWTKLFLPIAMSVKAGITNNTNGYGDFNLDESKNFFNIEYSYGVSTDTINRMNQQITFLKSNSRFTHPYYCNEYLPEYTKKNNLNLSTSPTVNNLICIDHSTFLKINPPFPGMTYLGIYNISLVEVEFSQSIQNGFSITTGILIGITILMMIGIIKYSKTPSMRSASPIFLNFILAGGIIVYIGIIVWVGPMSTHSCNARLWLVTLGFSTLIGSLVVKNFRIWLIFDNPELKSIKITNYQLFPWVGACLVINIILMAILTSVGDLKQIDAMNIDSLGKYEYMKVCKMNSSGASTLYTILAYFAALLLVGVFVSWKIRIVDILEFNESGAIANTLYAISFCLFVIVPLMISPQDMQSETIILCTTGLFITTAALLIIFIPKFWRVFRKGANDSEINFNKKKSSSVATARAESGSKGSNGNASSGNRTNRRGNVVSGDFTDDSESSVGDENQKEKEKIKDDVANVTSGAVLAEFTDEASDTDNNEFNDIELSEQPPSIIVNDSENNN
The assay can be described thus: co-sedimentation; adherent cells in HL5 incubated with 300 ng/ml rAprA, lysed mechanically, centrifuged at 14,000 g for 1 h at 4°C into pellet (contains plasma membranes) and supernatant; western blot for Myc; grlH− cells as comparison; only the binder purified.

Results are given in words; binding and its absence hold for the method and conditions named. Binding seen in cells or lysates may run through a third protein. Some results given as binding are weak or reduced against the parent protein; the word gives no strength. Tags and fused reporters may be left off the sequences shown.

B1: Myc-tagged recombinant AprA (autocrine proliferation repressor protein A) (ligand, UniProt Q5XM24 19-494)
chain: TPLDDYVNAPDDTYKWTLNNTIEYETFTGYILELTSQTWMAEKSDWPVWKHWVSICVPKGVTTTTTFIYVDGGSNDNWKVPGSMDQTIEIVCLSSGSVSVGLTQIPNQPIIFNNDGVQRFEDDLVAYTWRQFLGNTSEPLWLARLPMTKAVVKCMDAVQEFGKTIGYNSENFVIAGASKRGWTTWLAGVVDPRIIAIVPIVMPILNMIPNMGHQFYAYGEWSFALNDYTGQGVMDYLNGPQMVELAAIVDPFSYRDRYTMPIYAIASSDDEFFLPDSPQFFWNNLTATPEKHLRIVPNAEHSLMGHQIDIILSIVTFVRLLITNQPRPTFTWDITYSEDLNSGTIVLTVPEGGIIPYKVKVWTAVTESTTRRDFRIITCMDITKCIQFIIWDPSDITPTSTGVYSITLSKPDAGWRAFFLEAEYLYAKNSIDDEYTLKFTSEVAIVPNTLPFGSCSEYNACGDGSQGDSASSTATL
Consider B1, for which the binding result is “binds”.
